Measurements published in PubChem BioAssay AID1487 (National Center for Advancing Translational Sciences (NCATS), 2009).
The list shows a part of the results. Further columns of the screen follow, without active or inactive calls. The list favours compounds with an active or inconclusive main result. Potencies come from curve fits of mixed quality, noted in brackets.

Experiment: qHTS Assay for Modulators of Lamin A Splicing
Conditions: HeLa LMNA splicing GFP/RFP minigene ratio, 48 h
In short: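 Read-out is the ratio of GFP to DsRed2 object intensity, acquired by 488 nm laser-scanning cytometry on HeLa lamin A-EGFP minigene reporter cells. Compound incubation 48 hrs at 37 °C in Opti-MEM with 2% FBS; DMSO 0.5% final.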

[1] = measured here: GFP splicing reporter channel
[2] = measured here: RFP viability control channel

SMILES | AC50 [1] | AC50 [2]
CC1CCC(C(C)C)C(OP(=O)(c2ccc(N(C)C)cc2)C(O)c2cccnc2)C1 (stereo unspecified) | 31.6 µM [rising, single point] | 31.6 µM [rising, single point]
O=C(COc1ccc(S(=O)(=O)N2CCCCC2)cc1)N1CCN(Cc2ccccc2)CC1 |  | 35.5 µM [rising, single point]
CCOC(=O)Cn1c(=O)oc2cc(S(=O)(=O)N3CCN(C(=O)c4ccco4)CC3)ccc21 |  | 17.8 µM [rising, single point]
C[C@H](N)[C@@H](O)c1ccccc1 | 2.51 µM [falling, partial curve, poor fit] | 7.94 µM [falling, partial curve, poor fit]
O=c1[nH]c2ccccc2c(=O)n1-c1ccc(Cl)cc1Cl | 35.5 µM [falling, partial curve, poor fit] | 
O=c1c2ccccc2nc(/C=C/c2ccc3c(c2)OCO3)n1-c1ccccc1 | 2.82 µM [falling, partial curve] | 7.08 µM [rising, full curve, poor fit]
Cc1ccc2c(c1)C1CN(C)CCC1N2C(=O)Nc1ccc(Cl)cc1 (stereo unspecified) |  | 20 µM [rising, single point]
CN(C(=O)Oc1ccc(C(=O)c2ccc(Cl)cc2)cc1)c1ccccc1 |  | 22.4 µM [rising, single point]
O=C(NCc1ccc2c(c1)CCN2C(=O)c1ccccc1)Nc1cccc(C(F)(F)F)c1 |  | 5.62 µM [rising, partial curve]
COc1cc2ccc(=O)oc2c2ccoc12 |  | 2.51 µM [rising, single point]
NCC1(CC(=O)O)CCCCC1 | 0.00891 µM [falling, full curve, poor fit] | 14.1 µM [falling, partial curve, poor fit]
O=c1c2ccccc2nc(-c2ccccc2)n1-c1ccc(O)cc1 | 0.00891 µM [rising, full curve, poor fit] | 
CCOC(=O)C1(c2ccccc2)CCN(CC(=O)Nc2ccc(C)cc2)CC1 | 17.8 µM [falling, single point] | 
O=c1[nH]c(=O)n(-c2ccccc2)c(O)c1/C=C1/C(c2ccccc2)=Nc2ccccc21 |  | 8.91 µM [rising, partial curve, poor fit]
O=C(Cn1ccc2ccccc2c1=O)NCC(=O)N1CCC2(CC1)OCCO2 | 2.51 µM [rising, partial curve] | 
COc1cc(CN2CCN(c3cc(C)ccc3C)CC2)ccc1O |  | 22.4 µM [rising, single point]
Cc1ccccc1 |  | 6.31 µM [falling, single point]
COc1ccc(-n2c(O)c(/C=C/C=Nc3ccccc3)c(=O)[nH]c2=O)cc1 | 10 µM [falling, partial curve] | 10 µM [falling, partial curve]

Three compounds already listed, arranged by length of the SMILES, low to high:
SMILES | AC50 [1] | AC50 [2]
Cc1ccccc1 |  | 6.31 µM [falling, single point]
O=c1c2ccccc2nc(-c2ccccc2)n1-c1ccc(O)cc1 | 0.00891 µM [rising, full curve, poor fit] | 
CCOC(=O)Cn1c(=O)oc2cc(S(=O)(=O)N3CCN(C(=O)c4ccco4)CC3)ccc21 |  | 17.8 µM [rising, single point]

Carrying on:

SMILES | AC50 [1] | AC50 [2]
COC(=O)c1c(-c2ccc(Cl)cc2)noc1N1CCN(c2ccc(C(C)=O)cc2)CC1 |  | 5.01 µM [rising, partial curve, poor fit]
O=C(CNC(=O)c1ccccc1Cl)Nc1ccc(Br)cc1C(=O)c1ccccc1 |  | 17.8 µM [rising, partial curve, poor fit]
CN1C2CCC1CC(OC(c1ccccc1)c1ccc(Cl)cc1)C2 (stereo unspecified) | 7.08 µM [falling, full curve, poor fit] | 5.62 µM [falling, partial curve]
N=C1c2ccccc2CN1c1ncccn1 |  | 11.2 µM [rising, partial curve]
CCCn1c(=O)c2[nH]c(C3CCCC3)nc2n(CCCOC(=O)c2ccc(S(=O)(=O)F)cc2)c1=O | 12.6 µM [falling, partial curve] | 0.0178 µM [falling, full curve, poor fit]
COc1cc2c(C(=O)O)c(C)n(C)c2cc1Br | 14.1 µM [rising, partial curve, poor fit] | 
C=CCN1CC[C@]23c4c5ccc(O)c4O[C@@H]2/C(=N/N=C2\CC[C@@]4(O)C6Cc7ccc(O)c8c7[C@@]4(CCN6CC=C)[C@@H]2O8)CC[C@@]3(O)C1C5 | 12.6 µM [falling, partial curve, poor fit] | 7.08 µM [falling, full curve, poor fit]
C[C@@]12CC[C@H]3[C@@H](CCC4=CC(=O)CC[C@]43C)[C@H]1CC[C@H]2C(=O)CO |  | 3.98 µM [falling, partial curve]
CC(Cc1ccccc1)NC(=O)CN1CCCC1=O (stereo unspecified) |  | 5.62 µM [falling, single point]
CCc1nn(CC(=O)N2CCN(Cc3ccc4c(c3)OCO4)CC2)c(=O)c2cc3occc3n12 |  | 20 µM [rising, single point]
Cc1nc2ccccn2c1P(=S)(N1CCCCC1)N1CCCCC1 |  | 35.5 µM [rising, single point]
c1cnc2c(c1)ccc1ncccc12 | 0.0794 µM [falling, full curve, poor fit] | 0.0562 µM [falling, full curve, poor fit]
COC(=O)C(C)Oc1cc(C)cc2oc(=O)c3c(c12)CCC3 (stereo unspecified) | 0.501 µM [rising, full curve, poor fit] | 
CC[C@@H]1[C@@H]2C[C@H]3[C@H]4N(C)c5ccccc5[C@@]45C[C@@H]([C@@H]2[C@@H]5O)N3[C@H]1O | 3.16 µM [falling, single point] | 
COc1cccc(C2=CC(c3cc(Br)ccc3F)n3nnnc3N2)c1 (stereo unspecified) |  | 35.5 µM [falling, single point]
CNC(=O)Oc1cccc2ccccc12 | 0.0112 µM [falling, full curve, poor fit] | 
Cc1ccccc1-n1c(O)c(C=Nc2ccc(N(C)C)cc2)c(=O)[nH]c1=O |  | 12.6 µM [falling, partial curve, poor fit]
CC(=O)c1cccc(OCC(O)CN2CC=C(c3ccccc3)CC2)c1 (stereo unspecified) | 11.2 µM [rising, single point] | 6.31 µM [rising, partial curve, poor fit]
